# Structures can show the parent of a compound that is named as a salt. The list shows a part of the results. This data set is noisy: repeats of one test often differ as much as different tests do.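 ReNCell VM, a human fetal ventral-midbrain neural progenitor line, was differentiated without mitogens. Blinded raters scored images stained for doublecortin (early neurons) or tyrosine hydroxylase (dopaminergic neurons) against untreated wells (0 = no change). Scores were averaged across repeats and both raters, and compounds averaging 2 or more were selected as hits for retesting.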
# Columns and labels:
# [1] = tested on: ReNCell VM; assay: neuronal differentiation score (DCX+ cell fraction vs untreated, manual image score) (score (-3 to 3)); higher = more neuronal differentiation; settings: 2 uM, 2 weeks
# [2] = tested on: ReNCell VM; assay: dopaminergic neuron differentiation score (TH+ cell fraction vs untreated, manual image score) (score (0 to 3)); higher = more TH+ dopaminergic neuron differentiation; settings: 2 uM, 4 weeks, BDNF 10 ng/ml + GDNF 10 ng/ml
Structure (SMILES),neuronal differentiation score ([1]; library: LOPAC),neuronal differentiation score ([1]; library: Prestwick),neuronal differentiation score ([1]; library: Tocriscreen),dopaminergic neuron differentiation score ([2]; library: LOPAC),dopaminergic neuron differentiation score ([2]; library: Prestwick),dopaminergic neuron differentiation score ([2]; library: Tocriscreen),neuronal differentiation score ([1]; library: Phytochemical),dopaminergic neuron differentiation score ([2]; library: Phytochemical)
N=C(N)NC(=O)Cc1c(Cl)cccc1Cl [Guanfacine hydrochloride],inactive: 0,inactive: 0,inactive: 1,inactive: 0,inactive: 0,inactive: 0,–,–
CCCC1O[C@@H]2C[C@H]3[C@@H]4CCC5=CC(=O)C=C[C@]5(C)[C@H]4[C@@H](O)C[C@]3(C)[C@]2(C(=O)CO)O1 (stereo not given in full) [Budesonide],inactive: 1,inactive: 0,inactive: 0,inactive: 0,active: 3,inactive: 0,–,–
CN(C)C(=O)C(CCN1CCC(O)(c2ccc(Cl)cc2)CC1)(c1ccccc1)c1ccccc1 [Loperamide hydrochloride],inactive: 0,inactive: 0,inactive: 0,inactive: 0,inactive: 0,inactive: 0,–,–
OCCN(CCO)c1nc(N2CCCCC2)c2nc(N(CCO)CCO)nc(N3CCCCC3)c2n1 [Dipyridamole],inactive: 0,inactive: 0,inactive: 0,inactive: 0,inactive: 0,inactive: 0,–,–
CN1CCC(=C2c3ccccc3CC(=O)c3sccc32)CC1 [Ketotifen fumarate],inactive: 0,inactive: 0,inactive: 0,inactive: 0,inactive: 0,inactive: 0,–,–
O=C1CCc2cc(OCCCCc3nnnn3C3CCCCC3)ccc2N1 [Cilostazol],inactive: 0,inactive: 0,inactive: 0,inactive: 0,active: 3,inactive: 0,–,–
COc1ccccc1N1CCN(CCCNc2cc(=O)n(C)c(=O)n2C)CC1 [Urapidil hydrochloride],inactive: 0,inactive: 0,inactive: 0,inactive: 0,inactive: 0,inactive: 0,–,–
CC1=C(/C=C/C(C)=C/C=C/C(C)=C/C(=O)O)C(C)(C)CCC1 [Retinoic acid],inactive: 1,inactive: 1,inactive: 1,inactive: 0,inactive: 0,inactive: 0,–,–
COCCCC/C(=N\OCCN)c1ccc(C(F)(F)F)cc1 [Fluvoxamine maleate],inactive: 0,inactive: 0,inactive: 0,inactive: 0,inactive: 0,inactive: 0,–,–
CNCCC(Oc1ccc(C(F)(F)F)cc1)c1ccccc1 (stereo not given) [Fluoxetine hydrochloride],inactive: 1,inactive: 0,inactive: 0,inactive: 0,inactive: 0,inactive: 0,–,–
CC[C@@H]1C(=O)OC[C@@H]1Cc1cncn1C [Pilocarpine nitrate],inactive: 1,inactive: 0,–,inactive: 0,inactive: 0,–,inactive: 0,inactive: 0
NNCCc1ccccc1 [Phenelzine sulfate],inactive: 0,inactive: 0,–,inactive: 0,inactive: 1,–,–,–
O=[N+]([O-])c1cccc2c(Br)[nH]nc12 [3-Bromo-7-nitroindazole],inactive: 0,–,inactive: 0,inactive: 0,–,inactive: 0,–,–
CCCc1c(OCCCOc2ccc(OCC(=O)O)cc2)ccc(C(C)=O)c1O,inactive: 1,–,inactive: 0,inactive: 0,–,inactive: 0,–,–
N=C(N)SCCc1c[nH]cn1 [Imetit dihydrobromide],inactive: 0,–,inactive: 0,inactive: 0,–,inactive: 0,–,–
CN1CCN(CCCN2c3ccccc3Sc3ccc(C(F)(F)F)cc32)CC1 [Trifluoperazine dihydrochloride],inactive: 0,inactive: 0,–,inactive: 0,inactive: 0,–,–,–
C=C[C@H]1CN2CC[C@H]1C[C@@H]2[C@@H](O)c1ccnc2ccc(OC)cc12 [Quinidine hydrochloride monohydrate],–,inactive: 0,–,–,inactive: 0,–,inactive: 0,inactive: 0
NC(=O)c1ccc2[nH]ccc2c1,inactive: 0,–,inactive: 0,inactive: 0,–,inactive: 0,–,–
Cn1c(=O)c2nc[nH]c2n(C)c1=O [Theophylline monohydrate],–,inactive: 0,–,–,inactive: 0,–,inactive: 0,inactive: 0
CN1CCN(CC(=O)N2c3ccccc3C(=O)Nc3cccnc32)CC1 [Pirenzepine dihydrochloride],inactive: 0,inactive: 0,–,inactive: 1,inactive: 0,–,–,–
CN(C)CCCN1c2ccccc2Sc2ccc(Cl)cc21 [Chlorpromazine hydrochloride],inactive: 0,inactive: 0,–,inactive: 0,inactive: 0,–,–,–
COC(=O)C1=C(C)NC(C)=C(C(=O)OCCN(C)Cc2ccccc2)C1c1cccc([N+](=O)[O-])c1 (stereo not given) [Nicardipine hydrochloride],inactive: 0,inactive: 0,–,inactive: 0,inactive: 0,–,–,–
O=C(Nc1ccc([N+](=O)[O-])cc1Cl)c1cc(Cl)ccc1O [Niclosamide],inactive: 0,inactive: -1,–,inactive: 0,inactive: 0,–,–,–
Nc1ccc(S(=O)(=O)Nc2ccnn2-c2ccccc2)cc1 [Sulfaphenazole],inactive: 0,inactive: 0,–,inactive: 0,inactive: 0,–,–,–
COc1c(C)c2c(c(O)c1C/C=C(\C)CCC(=O)O)C(=O)OC2 [Mycophenolic acid],–,–,inactive: 0,–,–,inactive: 0,inactive: 0,inactive: 0
CN1CCc2cc(Cl)c(O)cc2[C@@H](c2ccccc2)C1,inactive: 1,–,inactive: -2,inactive: 0,–,inactive: 0,–,–

Structure (SMILES),neuronal differentiation score ([1]; library: LOPAC),neuronal differentiation score ([1]; library: Prestwick),neuronal differentiation score ([1]; library: Tocriscreen),dopaminergic neuron differentiation score ([2]; library: LOPAC),dopaminergic neuron differentiation score ([2]; library: Prestwick),dopaminergic neuron differentiation score ([2]; library: Tocriscreen),neuronal differentiation score ([1]; library: Phytochemical),dopaminergic neuron differentiation score ([2]; library: Phytochemical)
CCCCCCCCc1ccc(-c2ccc(C(=O)O)cc2)cc1,inactive: 0,–,inactive: 0,inactive: 0,–,inactive: 0,–,–
CC(C)N(CCC(=O)c1ccc2ccccc2c1)Cc1ccccc1,inactive: 0,–,inactive: 0,inactive: 0,–,inactive: 0,–,–
Cn1cc(C2=C(c3ccc(Cl)cc3Cl)C(=O)NC2=O)c2ccccc21,inactive: 0,–,inactive: 0,inactive: 0,–,inactive: 0,–,–
C#CCN1C(C)=C(C(=O)OC)C(c2cccc([N+](=O)[O-])c2)C(C(=O)OCC)=C1C (stereo not given),inactive: 0,–,inactive: 0,inactive: 0,–,inactive: 0,–,–
N=C(N)N1CCc2ccccc2C1 [Debrisoquin sulfate],inactive: 0,inactive: 0,–,inactive: 0,inactive: 0,–,–,–
COc1ccc(CCN(C)CCc2ccc(OC)c(OC)c2)cc1OC [YS-035 hydrochloride],inactive: 0,–,inactive: 0,inactive: 0,–,inactive: 0,–,–
OCc1cc(C(O)CNCCCCCCOCCCCc2ccccc2)ccc1O (stereo not given) [Salmeterol],–,inactive: 0,inactive: 0,–,inactive: 1,inactive: 0,–,–
CN(C)CCCCSC(=N)N,inactive: 0,–,inactive: 0,inactive: 0,–,inactive: 0,–,–
Nc1nc(F)nc2c1ncn2[C@@H]1O[C@H](CO)[C@@H](O)[C@@H]1O [Fludarabine],–,inactive: 0,inactive: 0,–,inactive: 0,inactive: 0,–,–
COc1ccc([C@@H]2CC(=O)c3c(O)cc(O[C@@H]4O[C@H](CO[C@@H]5O[C@@H](C)[C@H](O)[C@@H](O)[C@H]5O)[C@@H](O)[C@H](O)[C@H]4O)cc3O2)cc1O [Hesperidin],–,inactive: 0,–,–,inactive: 0,–,inactive: 0,inactive: 0
CN(C)C/C=C(/c1ccc(Br)cc1)c1cccnc1 [Zimelidine dihydrochloride],inactive: 0,–,inactive: 0,inactive: 0,–,inactive: 0,–,–
CCC(=O)O[C@]1(C(=O)SCF)[C@H](C)C[C@H]2[C@@H]3C[C@H](F)C4=CC(=O)C=C[C@]4(C)[C@@]3(F)[C@@H](O)C[C@@]21C [Fluticasone propionate],–,inactive: 0,inactive: 0,–,inactive: 0,inactive: 0,–,–
CN(C)c1nc(N(C)C)nc(N(C)C)n1 [Altretamine],inactive: 0,inactive: 0,–,inactive: 0,inactive: 0,–,–,–
Nc1ncnc2n[nH]c(Nc3ccc(F)cc3)c12,inactive: 0,–,inactive: 0,active: 3,–,inactive: 0,–,–
O=C(CCNNC(=O)c1ccncc1)NCc1ccccc1 [Nialamide],inactive: 1,inactive: 0,–,inactive: 0,inactive: 0,–,–,–
CN(C)CCCN1c2ccccc2Sc2ccccc21 [Promazine hydrochloride],inactive: 0,inactive: 0,–,inactive: 0,inactive: 0,–,–,–
COC(=O)C1=C(C)NC(C)=C(C(=O)OC(C)C)C1c1cccc2nonc12 (stereo not given) [Isradipine],–,inactive: 1,inactive: 0,–,inactive: 0,inactive: 0,–,–
C[C@H]1c2cccc(O)c2C(=O)C2=C(O)[C@]3(O)C(=O)C(C(N)=O)=C(O)[C@@H](N(C)C)[C@@H]3[C@@H](O)[C@@H]21 [Doxycycline hydrochloride],inactive: 0,inactive: 0,–,inactive: 0,inactive: 0,–,–,–
CN(C)CCN(Cc1cccs1)c1ccccn1 [Methapyrilene hydrochloride],inactive: 0,inactive: 0,–,inactive: 0,inactive: 0,–,–,–
O=C(O)C=C1CCCc2ccccc2C1O (stereo not given),inactive: 0,–,inactive: 0,inactive: 0,–,inactive: 0,–,–
Cn1cc(C(=O)OCC2CCN(CCNS(C)(=O)=O)CC2)c2ccccc21,inactive: 0,–,inactive: 0,inactive: 0,–,inactive: 0,–,–
Cc1ccc(S(=O)(=O)/C=C/C#N)cc1,inactive: 0,–,inactive: 0,inactive: 0,–,inactive: 0,–,–
CC[N+](C)(C)c1cccc(O)c1 [Edrophonium chloride],inactive: 0,inactive: 0,–,inactive: 0,inactive: 0,–,–,–
CCCCC1C(=O)N(c2ccccc2)N(c2ccccc2)C1=O [Phenylbutazone],inactive: -1,inactive: 0,–,inactive: 0,inactive: 0,–,–,–
CCC(C)(C)C(=O)O[C@H]1C[C@@H](C)C=C2C=C[C@H](C)[C@H](CC[C@@H]3C[C@@H](O)CC(=O)O3)[C@H]21 [Simvastatin],–,inactive: 0,inactive: 0,–,inactive: 0,inactive: 0,–,–
NC(=O)OCC(COC(N)=O)c1ccccc1 [Felbamate],inactive: 0,–,inactive: 0,inactive: 0,–,inactive: 0,–,–

# An excerpt from above in order of SMILES length, falling.
Structure (SMILES),neuronal differentiation score ([1]; library: LOPAC),neuronal differentiation score ([1]; library: Prestwick),neuronal differentiation score ([1]; library: Tocriscreen),dopaminergic neuron differentiation score ([2]; library: LOPAC),dopaminergic neuron differentiation score ([2]; library: Prestwick),dopaminergic neuron differentiation score ([2]; library: Tocriscreen),neuronal differentiation score ([1]; library: Phytochemical),dopaminergic neuron differentiation score ([2]; library: Phytochemical)
COc1ccc(CCN(C)CCc2ccc(OC)c(OC)c2)cc1OC [YS-035 hydrochloride],inactive: 0,–,inactive: 0,inactive: 0,–,inactive: 0,–,–
CCCCC1C(=O)N(c2ccccc2)N(c2ccccc2)C1=O [Phenylbutazone],inactive: -1,inactive: 0,–,inactive: 0,inactive: 0,–,–,–
CN(C)CCCCSC(=N)N,inactive: 0,–,inactive: 0,inactive: 0,–,inactive: 0,–,–

# From the supplement of paper PMC4635364
